For the assay, the target named is TEAD4 (human (endogenous in LN229)) (UniProt Q15561). As to the kind of experiment: co-IP; LN229 cell extracts precleared with control IgG and Protein A/G plus Agarose; precipitated with antibodies against TAZ or TEAD4 and Protein A/G plus Agarose overnight; washed with PBS; Western blotting.

Chains of the proteins cited; added tags and fusions are not shown.
UniProt Q15561: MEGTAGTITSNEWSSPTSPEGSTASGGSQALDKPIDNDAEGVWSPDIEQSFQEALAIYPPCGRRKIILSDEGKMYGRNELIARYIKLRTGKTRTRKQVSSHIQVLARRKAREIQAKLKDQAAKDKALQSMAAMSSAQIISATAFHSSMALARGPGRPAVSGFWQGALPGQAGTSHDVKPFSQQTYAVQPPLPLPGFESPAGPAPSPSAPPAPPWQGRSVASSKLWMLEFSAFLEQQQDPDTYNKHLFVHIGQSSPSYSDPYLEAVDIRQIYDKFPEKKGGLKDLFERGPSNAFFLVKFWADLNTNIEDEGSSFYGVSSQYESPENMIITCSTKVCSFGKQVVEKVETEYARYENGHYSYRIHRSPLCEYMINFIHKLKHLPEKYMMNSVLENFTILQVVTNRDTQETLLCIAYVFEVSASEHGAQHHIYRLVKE
UniProt Q9GZV5: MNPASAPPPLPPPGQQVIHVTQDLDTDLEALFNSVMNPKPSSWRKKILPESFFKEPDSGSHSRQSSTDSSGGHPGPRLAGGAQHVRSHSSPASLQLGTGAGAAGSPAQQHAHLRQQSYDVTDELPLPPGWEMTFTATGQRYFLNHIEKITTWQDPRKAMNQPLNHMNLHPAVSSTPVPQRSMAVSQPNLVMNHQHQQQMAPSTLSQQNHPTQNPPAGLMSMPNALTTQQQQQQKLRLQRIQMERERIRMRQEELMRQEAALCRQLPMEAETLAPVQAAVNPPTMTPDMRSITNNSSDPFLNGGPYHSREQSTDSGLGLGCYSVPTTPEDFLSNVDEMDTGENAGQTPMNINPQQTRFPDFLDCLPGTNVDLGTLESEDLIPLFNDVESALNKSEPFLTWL

These are yes or no findings as the source states them, for the method shown. In cells and extracts the contact can be indirect. Some entries that bind do so weakly or less than the wild type.

For “transcriptional coactivator with PDZ-binding motif (TAZ) (from UniProt Q9GZV5 1-400)”, the binding result was “binds”.

The record behind these values is paper PMC5347724.
